The target in the assay is T1, GFP-PRPF6 (UniProt O94906).
T1 sequence: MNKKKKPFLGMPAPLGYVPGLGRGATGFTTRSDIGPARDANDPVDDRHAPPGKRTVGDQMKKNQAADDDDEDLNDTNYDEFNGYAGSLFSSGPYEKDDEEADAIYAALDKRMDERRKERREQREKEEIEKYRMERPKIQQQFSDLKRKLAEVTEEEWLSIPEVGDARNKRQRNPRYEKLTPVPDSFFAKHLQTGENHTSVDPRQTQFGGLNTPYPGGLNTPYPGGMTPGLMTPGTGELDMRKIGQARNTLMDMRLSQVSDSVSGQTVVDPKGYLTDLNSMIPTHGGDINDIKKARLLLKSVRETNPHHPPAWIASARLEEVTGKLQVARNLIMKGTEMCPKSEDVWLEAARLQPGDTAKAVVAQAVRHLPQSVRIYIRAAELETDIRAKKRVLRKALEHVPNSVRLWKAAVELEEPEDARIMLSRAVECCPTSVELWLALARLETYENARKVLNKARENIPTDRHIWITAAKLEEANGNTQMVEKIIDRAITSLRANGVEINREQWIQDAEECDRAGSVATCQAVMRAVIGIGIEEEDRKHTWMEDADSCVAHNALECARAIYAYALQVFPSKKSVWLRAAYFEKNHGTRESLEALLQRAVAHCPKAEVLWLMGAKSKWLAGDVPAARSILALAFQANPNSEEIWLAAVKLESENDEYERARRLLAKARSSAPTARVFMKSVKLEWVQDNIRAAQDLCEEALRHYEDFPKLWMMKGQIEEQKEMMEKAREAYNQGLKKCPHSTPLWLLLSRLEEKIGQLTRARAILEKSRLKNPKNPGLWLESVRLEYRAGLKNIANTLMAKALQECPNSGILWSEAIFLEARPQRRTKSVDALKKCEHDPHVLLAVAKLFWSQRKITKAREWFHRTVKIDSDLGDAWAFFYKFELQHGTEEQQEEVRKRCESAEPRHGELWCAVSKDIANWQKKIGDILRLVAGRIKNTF
Kind of assay: co-IP; GFP-Trap agarose beads (nanobody); lysates of HEK293T cells co-transfected with GFP-tagged and HA-tagged proteins, 2 h at 4 °C; SDS-PAGE and Western blot.

Results are given in words; binding and its absence hold for the method and conditions named. Binding seen in cells or lysates may run through a third protein. Some results given as binding are weak or reduced against the parent protein; the word gives no strength. Tags and fused reporters may be left off the sequences shown.

B1: HA-N-VLGR1_CTF (3xHA-tagged VLGR1_CTF) (domain or fragment, UniProt Q8WXG9-1 5891-6306)
chain: SVYAVYARTDNLSSYNEAFFTSGFICISGLCLAVLSHIFCARYSMFAAKLLTHMMAASLGTQILFLASAYASPQLAEESCSAMAAVTHYLYLCQFSWMLIQSVNFWYVLVMNDEHTERRYLLFFLLSWGLPAFVVILLIVILKGIYHQSMSQIYGLIHGDLCFIPNVYAALFTAALVPLTCLVVVFVVFIHAYQVKPQWKAYDDVFRGRTNAAEIPLILYLFALISVTWLWGGLHMAYRHFWMLVLFVIFNSLQGLYVFMVYFILHNQMCCPMKASYTVEMNGHPGPSTAFFTPGSGMPPAGGEISKSTQNLIGAMEEVPPDWERASFQQGSQASPDLKPSPQNGATFPSSGGYGQGSLIADEESQEFDDLIFALKTGAGLSVSDNESGQGSQEGGTLTDSQIVELRRIPIADTHL
On to B1, for which the binding result is “binds”.
